Test results published in the supplement of paper PMC9744312.
Counter-ions that a name gives are not always drawn. This is one part of the list. Single values of this set are uncertain.

The compounds below were run on Peyronie's disease tunica albuginea primary fibroblasts (assay: inhibition of TGF-beta1-induced alpha-SMA expression (myofibroblast transformation), relative to TGF-beta1-only and untreated controls; higher = stronger inhibition of myofibroblast transformation). Conditions: 10 µM; TGF-beta1 10 ng/mL; 72 h.

Structure (SMILES)	inhibition of TGF-beta1-induced alpha-SMA expression
O=C1c2c(O)ccc(O)c2C(=O)c2c(NCCNCCO)ccc(NCCNCCO)c21 [Mitoxantrone 2HCl]	> 100%
Cc1ccc(Nc2nccc(N(C)c3ccc4c(C)n(C)nc4c3)n2)cc1S(N)(=O)=O [Pazopanib]	29.5%
Cc1ccc(Nc2nccc(N(C)c3ccc4c(C)n(C)nc4c3)n2)cc1S(N)(=O)=O	-16.4%
CCCCC(=O)N(Cc1ccc(-c2ccccc2-c2nnn[nH]2)cc1)[C@H](C(=O)O)C(C)C [Valsartan]	17.8%
COc1cc(Nc2ncc3c(n2)-c2ccc(Cl)cc2C(c2c(F)cccc2OC)=NC3)ccc1C(=O)O [Alisertib (MLN8237)]	-63.2%
CCOC(CN1CCN(CC(C)C(=O)c2ccccc2)CC1)c1ccccc1 (configuration not stated) [Eprazinone 2HCl]	24.6%
OCC(CO)N[C@H]1C[C@](O)(CO)[C@@H](O)[C@H](O)[C@H]1O [Voglibose]	-13.9%
COc1ccc(C[C@@H](C)NC[C@H](O)c2ccc(O)c(NC=O)c2)cc1 [Arformoterol Tartrate]	16.5%
Cc1c(C(=O)Nc2ccc(N3C[C@@H](C)O[C@@H](C)C3)nc2)cccc1-c1ccc(OC(F)(F)F)cc1 [Sonidegib (Erismodegib, NVP-LDE225)]	34.6%
O=C1c2cccc(O)c2C(=O)c2c(O)cccc21 [Danthron]	12.3%
CCOC(N)=O [Urethane]	-23.5%
CC12CC3CC(C)(C1)CC(N)(C3)C2 [Memantine HCl]	9.81%
CN1C(C(=O)Nc2ccccn2)=C(O)c2sc(Cl)cc2S1(=O)=O [Lornoxicam]	3.24%
CC(C)c1nc(CN(C)C(=O)N[C@@H](CCN2CCOCC2)C(=O)N[C@H](CC[C@H](Cc2ccccc2)NC(=O)OCc2cncs2)Cc2ccccc2)cs1 [Cobicistat (GS-9350)]	-15.8%
Cc1cccc(-c2nn3c(c2-c2ccnc4ccc(C(N)=O)cc24)CCC3)n1	> 100%
O=c1cc[nH]c(=O)[nH]1 [Uracil]	19%
CCOC(=O)N1c2ccc(C(F)(F)F)cc2[C@@H](N(Cc2cc(C(F)(F)F)cc(C(F)(F)F)c2)C(=O)OC)C[C@H]1CC [Torcetrapib]	-8.78%
CCC[C@@H]1C[C@@H](C(=O)N[C@@H]([C@H]2O[C@H](SC)[C@H](O)[C@@H](O)[C@H]2O)[C@@H](C)O)N(C)C1 [Lincomycin HCl]	6.85%
CCC[C@@H]1C[C@@H](C(=O)N[C@@H]([C@H]2O[C@H](SC)[C@H](O)[C@@H](O)[C@H]2O)[C@@H](C)O)N(C)C1 [Lincomycin Hydrochloride Monohydrate]	-6.71%
CO[C@H]1C[C@@H]2CC[C@@H](C)[C@@](O)(O2)C(=O)C(=O)N2CCCC[C@H]2C(=O)O[C@H]([C@H](C)C[C@@H]2CC[C@@H](OC(=O)C(C)(CO)CO)[C@H](OC)C2)CC(=O)[C@H](C)/C=C(\C)[C@@H](O)[C@@H](OC)C(=O)[C@H](C)C[C@H](C)/C=C/C=C/C=C/1C	-19.2%
CN1CCCN=C1/C=C/c1cccs1 [Pyrantel Pamoate]	21.3%

Structure (SMILES)	inhibition of TGF-beta1-induced alpha-SMA expression
NNC(=O)c1ccncc1 [Isoniazid]	22%
C[C@H]1C[C@H]2[C@@H]3CCC4=CC(=O)C=C[C@]4(C)[C@H]3C(=O)C[C@]2(C)[C@@]1(O)C(=O)CO [Meprednisone]	55.4%
CCC(=O)OCC(=O)[C@@]1(OC(=O)CC)[C@@H](C)C[C@H]2[C@@H]3CCC4=CC(=O)C=C[C@]4(C)[C@@]3(F)[C@@H](O)C[C@@]21C [Betamethasone Dipropionate]	57.7%
O=C(O)CCCN1CCC(O[C@@H](c2ccc(Cl)cc2)c2ccccn2)CC1 [Bepotastine Besilate]	12.8%
O=C(O)c1cccnc1 [Nicotinic Acid]	26.6%
CCCCc1oc2ccccc2c1C(=O)c1cc(I)c(OCCN(CC)CC)c(I)c1 [Amiodarone HCl]	47.7%
Cc1cnc(C(=O)N[C@H]2CCCCC/C=C\[C@@H]3C[C@@]3(C(=O)NS(=O)(=O)C3CC3)NC(=O)[C@@H]3C[C@@H](Oc4nc5ccccc5c5ccccc45)CN3C2=O)cn1 [Paritaprevir (ABT-450)]	26%
O=c1[nH]c(=O)n([C@H]2C[C@H](O)[C@@H](CO)O2)cc1I [Idoxuridine]	8.32%
CN1CCN(c2ccc3nc(-c4c(N)c5c(F)cccc5[nH]c4=O)[nH]c3c2)CC1 [Dovitinib (TKI258) Lactate]	77.3%
CN1CCN(c2ccc3nc(-c4c(N)c5c(F)cccc5[nH]c4=O)[nH]c3c2)CC1 [Dovitinib (TKI-258, CHIR-258)]	-10.9%
C=CCNC1=C2C[C@@H](C)C[C@H](OC)[C@H](O)[C@@H](C)/C=C(\C)[C@H](OC(N)=O)[C@@H](OC)/C=C\C=C(/C)C(=O)NC(=CC1=O)C2=O [Tanespimycin (17-AAG)]	> 100%
Cc1cccc(N(C)C(=S)Oc2ccc3ccccc3c2)c1 [Tolnaftate]	16.3%
CCN1CCCC1CNC(=O)c1cc(S(N)(=O)=O)ccc1OC (configuration not stated) [Sulpiride]	-51.4%
COc1ccc(-c2ccc3cc(C(=O)O)ccc3c2)cc1C12CC3CC(CC(C3)C1)C2 [Adapalene]	61.6%
NCCc1ccc(O)c(O)c1 [Dopamine HCl]	39.1%
C[C@H](CS)C(=O)N1CCC[C@H]1C(=O)O [Captopril]	-21.3%
CN(Cc1cc(Br)cc(Br)c1N)C1CCCCC1 [Bromhexine HCl]	21.7%
COC(=O)N[C@H](C(=O)N1CC2(CC2)C[C@H]1c1nc(-c2ccc3c(c2)C(F)(F)c2cc(-c4ccc5[nH]c([C@@H]6[C@H]7CC[C@H](C7)N6C(=O)[C@@H](NC(=O)OC)C(C)C)nc5c4)ccc2-3)c[nH]1)C(C)C [Ledipasvir (GS5885)]	3.16%
COc1ccc(CNc2nc(N3CCC[C@H]3CO)ncc2C(=O)NCc2ncccn2)cc1Cl [Avanafil]	14.2%
CC(=O)OCC(=O)[C@@]1(O)CC[C@H]2[C@@H]3CCC4=CC(=O)C=C[C@]4(C)[C@H]3[C@@H](O)C[C@@]21C [Prednisolone Acetate]	44.3%
Cc1c(Nc2ncccc2C(=O)O)cccc1C(F)(F)F [Flunixin Meglumin]	39.9%

A few values from above.
For inhibition of TGF-beta1-induced alpha-SMA expression, COc1ccc(-c2ccc3cc(C(=O)O)ccc3c2)cc1C12CC3CC(CC(C3)C1)C2 [Adapalene] has the entry 61.6%
For inhibition of TGF-beta1-induced alpha-SMA expression, C=CCNC1=C2C[C@@H](C)C[C@H](OC)[C@H](O)[C@@H](C)/C=C(\C)[C@H](OC(N)=O)[C@@H](OC)/C=C\C=C(/C)C(=O)NC(=CC1=O)C2=O [Tanespimycin (17-AAG)] has the entry > 100%
